# Source: publication PMC6443209
# No constants are given. Whether binding was seen depends on the method and setting. Binding seen in cells or lysates may run through a third protein. Some results given as binding are weak or reduced against the parent protein; the word gives no strength. Sequences can lack the tags named with a protein.
# T1: Pol1-Flag (catalytic subunit of the DNA polymerase alpha complex, fission yeast) (S. pombe) (UniProt P28040)
# T1 sequence: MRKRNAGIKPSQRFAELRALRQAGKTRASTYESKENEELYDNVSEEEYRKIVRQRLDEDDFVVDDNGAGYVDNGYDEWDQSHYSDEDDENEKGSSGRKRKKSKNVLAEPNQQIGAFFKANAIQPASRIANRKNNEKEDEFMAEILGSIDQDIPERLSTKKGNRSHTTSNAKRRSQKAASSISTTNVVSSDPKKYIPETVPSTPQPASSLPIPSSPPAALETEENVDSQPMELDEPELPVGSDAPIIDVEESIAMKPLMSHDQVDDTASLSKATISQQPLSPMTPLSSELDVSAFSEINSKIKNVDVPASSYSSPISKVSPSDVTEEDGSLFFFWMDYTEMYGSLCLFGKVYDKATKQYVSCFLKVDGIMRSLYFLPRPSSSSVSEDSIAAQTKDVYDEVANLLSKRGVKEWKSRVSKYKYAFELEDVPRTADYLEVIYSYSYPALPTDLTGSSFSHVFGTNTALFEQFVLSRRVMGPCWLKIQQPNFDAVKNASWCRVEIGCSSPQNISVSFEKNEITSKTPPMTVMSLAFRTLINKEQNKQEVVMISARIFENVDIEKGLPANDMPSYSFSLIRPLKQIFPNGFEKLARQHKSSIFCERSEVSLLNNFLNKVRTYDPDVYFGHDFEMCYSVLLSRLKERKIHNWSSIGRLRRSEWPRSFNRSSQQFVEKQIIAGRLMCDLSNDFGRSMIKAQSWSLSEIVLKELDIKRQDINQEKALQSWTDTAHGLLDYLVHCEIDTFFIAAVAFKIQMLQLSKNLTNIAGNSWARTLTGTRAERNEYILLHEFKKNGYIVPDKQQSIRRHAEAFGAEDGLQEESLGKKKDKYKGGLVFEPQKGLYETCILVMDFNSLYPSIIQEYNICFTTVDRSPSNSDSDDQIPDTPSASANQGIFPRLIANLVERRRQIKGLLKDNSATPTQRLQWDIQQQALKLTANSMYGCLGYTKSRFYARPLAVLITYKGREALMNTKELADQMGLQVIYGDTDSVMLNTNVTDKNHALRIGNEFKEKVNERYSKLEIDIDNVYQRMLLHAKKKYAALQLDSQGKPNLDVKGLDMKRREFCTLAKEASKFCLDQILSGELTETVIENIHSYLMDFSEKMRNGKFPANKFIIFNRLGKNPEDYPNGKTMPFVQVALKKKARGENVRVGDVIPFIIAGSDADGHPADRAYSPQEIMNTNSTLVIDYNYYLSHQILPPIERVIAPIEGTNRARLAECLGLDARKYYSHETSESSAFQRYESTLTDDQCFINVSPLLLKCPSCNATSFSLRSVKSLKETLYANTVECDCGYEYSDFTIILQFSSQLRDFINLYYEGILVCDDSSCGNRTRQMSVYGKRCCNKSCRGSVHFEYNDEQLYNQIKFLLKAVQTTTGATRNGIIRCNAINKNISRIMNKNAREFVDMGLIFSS
# T2: Ten1-Flag (fission yeast Ten1) (S. pombe) (UniProt P0C5Y7)
# T2 sequence: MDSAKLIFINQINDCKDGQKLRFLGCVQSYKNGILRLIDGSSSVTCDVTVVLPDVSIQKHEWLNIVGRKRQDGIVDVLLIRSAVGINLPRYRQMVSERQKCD
# How the values were obtained:
# [1] = target: T1, Pol1-Flag (catalytic subunit of the DNA polymerase alpha complex, fission yeast) (S. pombe); assay: co-IP; extracts of exponentially growing wt S. pombe cells; lysis in IP buffer (HEPES pH 7.5, 150 mM NaCl, EDTA, Triton X-100, NP-40, DNase 10 U/ml); anti-Flag M2 overnight; three washes with IP buffer + 0.5 M NaCl; Western blot
# [2] = target: T2, Ten1-Flag (fission yeast Ten1) (S. pombe); assay: as above
binder,measurement,setting,value
"Stn1-Myc (fission yeast Stn1, extracts of wt cells) (protein, UniProt Q0E7J7 1-325) MLENENQLTHQFPTLSRWNPMFISDVHKISFHPHLQRYIGFWMGFPIRWIQIVGYIAAIDIYEGKHVLTVDDCSGMVLRVVFIIQDDFSMSKRAISMSPGNVVCVFGKINSFRSEVELIAQSFEELRDPNDEWKAWQKRMRYKKNLTKISKNHHSIIRTPKKSYFPKDHAKELLKCIRQMCKLNVQAGFTIEELIIYLKAKELHLPLVHIFNVENEIVENCDGNHILALNFSLQTLLQHGRIVRKSNSVYMLVTSKDIIRFVIPLMASGLLEAHKVQSIVRDSNPMFITLPLSAIAKHICQFLLRTKGKWRQAKKYTWVRDNQFV",binding,[1],binds
same,binding,[2],binds
